Reference: publication PMC4043117

Sequences of proteins named here, by UniProt entry; tags and fusion partners are left off. A change or cut given only in a name is not applied to a line headed by its entry.
UniProt O42995: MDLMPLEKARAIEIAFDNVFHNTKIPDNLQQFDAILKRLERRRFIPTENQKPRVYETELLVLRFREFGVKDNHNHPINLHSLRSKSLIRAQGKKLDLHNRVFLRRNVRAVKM
UniProt O94682: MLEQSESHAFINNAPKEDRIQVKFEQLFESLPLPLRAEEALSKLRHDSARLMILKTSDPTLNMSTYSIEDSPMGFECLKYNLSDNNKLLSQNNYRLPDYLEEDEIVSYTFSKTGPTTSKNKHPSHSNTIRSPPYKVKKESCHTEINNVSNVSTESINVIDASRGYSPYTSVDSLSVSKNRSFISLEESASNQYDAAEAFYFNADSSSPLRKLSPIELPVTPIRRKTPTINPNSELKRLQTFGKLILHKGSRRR

Tests used:
GST-Mis16 (S. pombe) = biological target: T1, GST-Mis16 (S. pombe) (UniProt O94244); assay: pull-down; GST pulldown on glutathione agarose from lysates of E. coli co-expressing the two proteins; Coomassie-type stained gel
T1 sequence: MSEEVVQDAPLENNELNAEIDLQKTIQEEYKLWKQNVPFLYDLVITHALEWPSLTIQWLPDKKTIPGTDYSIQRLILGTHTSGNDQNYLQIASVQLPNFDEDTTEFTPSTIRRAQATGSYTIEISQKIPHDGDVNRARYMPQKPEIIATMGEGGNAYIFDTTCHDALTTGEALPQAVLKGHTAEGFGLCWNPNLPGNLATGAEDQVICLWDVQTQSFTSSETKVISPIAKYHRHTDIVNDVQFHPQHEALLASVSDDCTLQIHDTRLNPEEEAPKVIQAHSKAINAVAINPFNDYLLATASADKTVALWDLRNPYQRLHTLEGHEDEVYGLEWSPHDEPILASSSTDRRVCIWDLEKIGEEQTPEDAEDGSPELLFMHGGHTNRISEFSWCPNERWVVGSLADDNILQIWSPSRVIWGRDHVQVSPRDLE

GST-Mis18 (S. pombe) = biological target: T2, GST-Mis18 (S. pombe) (UniProt Q9P802); assay: as above
T2 sequence: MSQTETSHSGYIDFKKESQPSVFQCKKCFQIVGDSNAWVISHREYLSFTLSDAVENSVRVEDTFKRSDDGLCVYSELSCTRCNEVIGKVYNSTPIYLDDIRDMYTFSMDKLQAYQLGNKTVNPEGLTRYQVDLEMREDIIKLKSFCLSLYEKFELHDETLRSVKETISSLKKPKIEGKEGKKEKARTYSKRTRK

Eic1-GFP (S. pombe) = Eic1-GFP (S. pombe) (UniProt O42995); assay: co-IP; 2 g pulverized S. pombe cells expressing the epitope-tagged proteins; anti-GFP, anti-Myc or anti-HA antibody on Protein G Dynabeads; western analysis
Eic2-GFP (S. pombe) = Eic2-GFP (S. pombe) (UniProt O94682); assay: as above
6xHis-Eic1 (S. pombe) = assay: pull-down; His pulldown on Ni-NTA agarose from lysates of E. coli co-expressing the two proteins; Coomassie-type stained gel
[1] = biological target: Eic2-GFP (S. pombe), O94682; assay: co-IP; 2 g pulverized S. pombe cells expressing the epitope-tagged proteins; anti-GFP, anti-Myc or anti-HA antibody on Protein G Dynabeads; western analysis; conditions: remark: other sources report otherwise

Molecule: 6xHis-Eic1 (S. pombe)
- binding (GST-Mis16 (S. pombe)): binds
- binding (GST-Mis18 (S. pombe)): binds

B1: Mis16-Myc (protein, UniProt O94244 1-430)
chain: MSEEVVQDAPLENNELNAEIDLQKTIQEEYKLWKQNVPFLYDLVITHALEWPSLTIQWLPDKKTIPGTDYSIQRLILGTHTSGNDQNYLQIASVQLPNFDEDTTEFTPSTIRRAQATGSYTIEISQKIPHDGDVNRARYMPQKPEIIATMGEGGNAYIFDTTCHDALTTGEALPQAVLKGHTAEGFGLCWNPNLPGNLATGAEDQVICLWDVQTQSFTSSETKVISPIAKYHRHTDIVNDVQFHPQHEALLASVSDDCTLQIHDTRLNPEEEAPKVIQAHSKAINAVAINPFNDYLLATASADKTVALWDLRNPYQRLHTLEGHEDEVYGLEWSPHDEPILASSSTDRRVCIWDLEKIGEEQTPEDAEDGSPELLFMHGGHTNRISEFSWCPNERWVVGSLADDNILQIWSPSRVIWGRDHVQVSPRDLE
- binding (Eic1-GFP (S. pombe)): binds

B2: Mis18-Myc (protein, UniProt Q9P802 1-194)
chain: MSQTETSHSGYIDFKKESQPSVFQCKKCFQIVGDSNAWVISHREYLSFTLSDAVENSVRVEDTFKRSDDGLCVYSELSCTRCNEVIGKVYNSTPIYLDDIRDMYTFSMDKLQAYQLGNKTVNPEGLTRYQVDLEMREDIIKLKSFCLSLYEKFELHDETLRSVKETISSLKKPKIEGKEGKKEKARTYSKRTRK
- binding (Eic2-GFP (S. pombe)): binds
- binding (Eic1-GFP (S. pombe)): binds

B3: Fta7-Myc (protein, UniProt O74844 1-244)
chain: MEMKRRVRAVRRDQIQKRWRPLEDKQRQEIIIIFRTCSRLVLNTIKSETRKSLAEEWFMNILLKIEAPLRNLPVPRKRKESILFSQLLSSNMQLEQQLYSDLDHINVLQQELKVETARLENEQKSYEEMKQNMAINNSRLADLKSKLHPYLKKGLKISHDNFSDSNDFSFQKKLNTEDSNTSKTSTLDMYKEKLKPFTKTMQIHANKTVQLSQTIQKATLLLQRLNNTKNIGLNKSSKLKIKNI
- binding (Eic1-GFP (S. pombe)): binds

B4: Cnl2-Myc (protein, UniProt O13952 1-188)
chain: MNMEEQILNDYLLSQGRLQSIISLEQWRQLFPQRYREDPLIERLYEYCTQQRQKRLAKLRANIHLESQVIGKSRIDRMLATNVEKLQTVSHASTLHDVEEFYTSHSAKPLDISEINERLSEAVQSAYTKLNEEKERCTQLTLKMNSQIASLSDFQWSKEPNVDESIHLVESLIESLEKAAPSAIEELD
- binding (Eic1-GFP (S. pombe)): binds

B5: GST-Mis18 (protein, UniProt Q9P802 1-194)
chain: MSQTETSHSGYIDFKKESQPSVFQCKKCFQIVGDSNAWVISHREYLSFTLSDAVENSVRVEDTFKRSDDGLCVYSELSCTRCNEVIGKVYNSTPIYLDDIRDMYTFSMDKLQAYQLGNKTVNPEGLTRYQVDLEMREDIIKLKSFCLSLYEKFELHDETLRSVKETISSLKKPKIEGKEGKKEKARTYSKRTRK
- binding (6xHis-Eic1 (S. pombe)): binds

B6: Mis16-Myc, O94244 1-430 (protein)
chain: MSEEVVQDAPLENNELNAEIDLQKTIQEEYKLWKQNVPFLYDLVITHALEWPSLTIQWLPDKKTIPGTDYSIQRLILGTHTSGNDQNYLQIASVQLPNFDEDTTEFTPSTIRRAQATGSYTIEISQKIPHDGDVNRARYMPQKPEIIATMGEGGNAYIFDTTCHDALTTGEALPQAVLKGHTAEGFGLCWNPNLPGNLATGAEDQVICLWDVQTQSFTSSETKVISPIAKYHRHTDIVNDVQFHPQHEALLASVSDDCTLQIHDTRLNPEEEAPKVIQAHSKAINAVAINPFNDYLLATASADKTVALWDLRNPYQRLHTLEGHEDEVYGLEWSPHDEPILASSSTDRRVCIWDLEKIGEEQTPEDAEDGSPELLFMHGGHTNRISEFSWCPNERWVVGSLADDNILQIWSPSRVIWGRDHVQVSPRDLE
- binding [1]: no binding

These are yes or no findings as the source states them, for the method shown. In cells and extracts the contact can be indirect. For part of these data: Binding calls can cover weak binding; strength is not graded here. Tags and fused reporters may be left off the sequences shown.
